Results deposited as PubChem BioAssay AID504764 (Drosophila RNAi Screening Center, 2011)
In all, the deposit lists about 22,000 reagents; shown is an unselected part of those with a known target gene and a result. In the full data, 403 (1.9%) got an active call. 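Unnormalised raw counts per well; ratio z-scores behind the hit calls and whether each hit raises or lowers signal are not deposited.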 A plus sign joins genes that one reagent is predicted to hit. Reagent sequences are not shown. Not given: the amount of reagent.

- Assay: 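Knock-downs that raise or lower a Notch target reporter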 (primary screen)
- Cells: Drosophila Kc167 cells
- Knock-down reagent: long dsRNA against Drosophila genes
- Duration: about 5 days (4 days dsRNA, then 24 h after transfection)
- Treatment: transfection of constitutively active membrane-tethered Notch lacking the extracellular domain, read 24 h later
- Measurement: 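Light from a Notch-responsive E(spl)m3 luciferase reporter under active Notch, with control-promoter and no-Notch reporter wells to normalise; raw counts from paired wells a and b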
- Direction: induced reporter light, run 1, well a and induced reporter light, run 1, well b: higher = more light from the Notch target reporter with active Notch; control promoter light, run 1, well a and control promoter light, run 1, well b: higher = more light from the viral control promoter (cell number, transfection, viability); uninduced reporter light, run 1, well a: higher = more light from the Notch target reporter without active Notch
- Call rule: 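Hit if the duplicate-averaged log2 ratio of induced to control-promoter light gives a plate-wise z beyond ±2, or induced to uninduced beyond ±1.8; weak-control or discordant-duplicate wells dropped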
- Calls: active = modifier hit (raised or lowered Notch signal); inactive = not a hit

no.	gene knocked down	amplicon	induced reporter light, run 1, well a	induced reporter light, run 1, well b	control promoter light, run 1, well a	control promoter light, run 1, well b	uninduced reporter light, run 1, well a	Call
1	Snr1	DRSC12369	1.13e5	95570	1.13e5	95330	16580	inactive
2	CG9286	DRSC16467	1.27e5	73430	98550	90845	9735	inactive
3	KrT95D	DRSC16725	2.33e5	1.94e5	2.22e5	2.51e5	14130	inactive
4	Cpr72Ec	DRSC10449	99860	93965	53645	73135	7490	inactive
5	CkIIalpha-i3	DRSC08651	1.36e5	1.24e5	2.08e5	2.33e5	9680	inactive
6	KFase	DRSC03258	1.93e5	1.26e5	1.94e5	1.62e5	10750	inactive
7	wcd	DRSC07051	64055	61250	89650	92310	4560	inactive
8	CG14434	DRSC17927	48170	42335	77735	67435	3440	inactive
9	CG6503	DRSC16056	1.42e5	1.27e5	1.83e5	1.85e5	12055	inactive
10	Kaz1-ORFB + Kaz1-ORFA	DRSC08669	1.47e5	1.27e5	2.11e5	2.68e5	12015	inactive
11	CG30291	DRSC03842	71735	90060	87280	79920	8250	inactive
12	Pfk	DRSC07506	1.05e5	1.12e5	1.01e5	84115	11855	inactive
13	Klp59C	DRSC04348	1.97e5	1.88e5	1.90e5	1.80e5	13995	inactive
14	chrb	DRSC11335	1.30e5	92735	66120	25100	8825	inactive
15	CG14011	DRSC02343	1.56e5	1.06e5	1.41e5	1.24e5	8900	inactive
16	vri	DRSC03633	13215	10140	11970	11885	5045	inactive
17	CG14722	DRSC14944	99930	1.05e5	68105	70460	8640	inactive
18	CG15880	DRSC00474	1.31e5	1.52e5	97660	59680	9345	inactive
19	Tsp	DRSC02144	1.33e5	1.41e5	1.83e5	1.83e5	15820	inactive
20	Tsp	DRSC02145	1.55e5	1.06e5	1.57e5	1.38e5	8182	inactive

A portion taken from the entries so far, as a working copy:
no.	gene knocked down	amplicon	induced reporter light, run 1, well a	induced reporter light, run 1, well b	control promoter light, run 1, well a	control promoter light, run 1, well b	uninduced reporter light, run 1, well a	Call
2	CG9286	DRSC16467	1.27e5	73430	98550	90845	9735	inactive
3	KrT95D	DRSC16725	2.33e5	1.94e5	2.22e5	2.51e5	14130	inactive
4	Cpr72Ec	DRSC10449	99860	93965	53645	73135	7490	inactive
